Measured values from PMC10691036.
Results are given in words; binding and its absence hold for the method and conditions named. In cells and extracts the contact can be indirect.

Amino acid sequences for entries named in this document (tags omitted).
UniProt Q96DH6: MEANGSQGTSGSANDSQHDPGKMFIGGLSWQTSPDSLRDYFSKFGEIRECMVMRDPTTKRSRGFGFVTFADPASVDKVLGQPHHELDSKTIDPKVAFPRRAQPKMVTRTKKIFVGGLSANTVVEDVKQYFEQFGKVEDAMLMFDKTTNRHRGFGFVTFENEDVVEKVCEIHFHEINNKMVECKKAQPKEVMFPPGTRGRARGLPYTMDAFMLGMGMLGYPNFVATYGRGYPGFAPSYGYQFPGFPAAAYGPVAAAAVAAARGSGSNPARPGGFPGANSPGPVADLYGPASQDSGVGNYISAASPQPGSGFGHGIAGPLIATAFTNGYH
UniProt P04792: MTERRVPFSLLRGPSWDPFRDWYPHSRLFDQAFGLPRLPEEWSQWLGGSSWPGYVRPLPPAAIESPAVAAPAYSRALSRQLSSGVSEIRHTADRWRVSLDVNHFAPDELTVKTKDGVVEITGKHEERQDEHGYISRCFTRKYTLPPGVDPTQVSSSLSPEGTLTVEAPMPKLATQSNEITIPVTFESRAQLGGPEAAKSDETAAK

Target: Musashi-2 (MSI2) (human (endogenous in SW620, LOVO, HEK293T)) (UniProt Q96DH6)
Experiment: co-IP; cell lysate supernatants (SW620, LOVO, HEK293T) precipitated with 2 ug MSI2 antibody (Abcam ab76148) or control IgG for 8 h at 4 C, Protein A/G magnetic beads 6 h at 4 C, five washes with IP buffer, Western blot

HSPB1 (from UniProt P04792 1-205)
binding: no binding
